The other results are listed elsewhere or left out. Small differences around the control level are noise.

By UniProt entry, the sequences of proteins in these tests, tags left out. Where a name states a change or a piece, a line headed by the entry shows the natural chain unless it says otherwise.
UniProt Q15131: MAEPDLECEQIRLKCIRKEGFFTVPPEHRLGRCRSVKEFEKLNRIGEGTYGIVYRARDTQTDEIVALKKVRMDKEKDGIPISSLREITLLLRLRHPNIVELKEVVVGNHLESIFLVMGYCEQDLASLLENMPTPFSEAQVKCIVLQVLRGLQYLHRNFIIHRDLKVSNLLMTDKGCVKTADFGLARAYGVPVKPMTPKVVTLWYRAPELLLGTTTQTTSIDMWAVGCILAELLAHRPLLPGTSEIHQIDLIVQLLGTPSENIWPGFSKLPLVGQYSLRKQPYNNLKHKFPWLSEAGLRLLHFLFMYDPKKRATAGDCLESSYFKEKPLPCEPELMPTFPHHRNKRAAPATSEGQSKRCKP
UniProt Q16385, whole entry: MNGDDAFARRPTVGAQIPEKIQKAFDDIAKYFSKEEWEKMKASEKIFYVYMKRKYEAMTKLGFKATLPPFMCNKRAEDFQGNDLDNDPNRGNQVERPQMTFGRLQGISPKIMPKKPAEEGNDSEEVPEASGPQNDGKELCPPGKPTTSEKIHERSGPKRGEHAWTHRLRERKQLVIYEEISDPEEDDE
UniProt Q15052: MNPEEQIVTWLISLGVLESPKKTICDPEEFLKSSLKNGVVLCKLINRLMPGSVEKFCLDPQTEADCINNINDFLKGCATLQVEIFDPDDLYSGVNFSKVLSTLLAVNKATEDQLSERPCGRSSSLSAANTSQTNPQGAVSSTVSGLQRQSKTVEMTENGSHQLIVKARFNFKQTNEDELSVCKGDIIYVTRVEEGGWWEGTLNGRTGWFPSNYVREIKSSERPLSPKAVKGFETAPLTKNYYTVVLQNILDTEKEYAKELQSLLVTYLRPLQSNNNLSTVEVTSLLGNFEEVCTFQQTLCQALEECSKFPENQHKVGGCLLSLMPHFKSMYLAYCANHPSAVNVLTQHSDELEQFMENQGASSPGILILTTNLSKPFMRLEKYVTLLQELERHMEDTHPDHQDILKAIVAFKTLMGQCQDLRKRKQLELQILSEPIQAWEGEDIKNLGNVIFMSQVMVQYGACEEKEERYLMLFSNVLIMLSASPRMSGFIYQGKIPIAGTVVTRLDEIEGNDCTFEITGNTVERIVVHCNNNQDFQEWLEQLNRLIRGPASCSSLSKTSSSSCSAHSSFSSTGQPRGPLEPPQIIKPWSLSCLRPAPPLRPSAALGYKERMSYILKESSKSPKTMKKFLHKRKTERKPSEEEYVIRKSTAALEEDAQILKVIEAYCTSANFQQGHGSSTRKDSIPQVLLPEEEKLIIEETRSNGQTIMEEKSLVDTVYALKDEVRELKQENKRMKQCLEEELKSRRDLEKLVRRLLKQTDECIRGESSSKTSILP
UniProt Q15652: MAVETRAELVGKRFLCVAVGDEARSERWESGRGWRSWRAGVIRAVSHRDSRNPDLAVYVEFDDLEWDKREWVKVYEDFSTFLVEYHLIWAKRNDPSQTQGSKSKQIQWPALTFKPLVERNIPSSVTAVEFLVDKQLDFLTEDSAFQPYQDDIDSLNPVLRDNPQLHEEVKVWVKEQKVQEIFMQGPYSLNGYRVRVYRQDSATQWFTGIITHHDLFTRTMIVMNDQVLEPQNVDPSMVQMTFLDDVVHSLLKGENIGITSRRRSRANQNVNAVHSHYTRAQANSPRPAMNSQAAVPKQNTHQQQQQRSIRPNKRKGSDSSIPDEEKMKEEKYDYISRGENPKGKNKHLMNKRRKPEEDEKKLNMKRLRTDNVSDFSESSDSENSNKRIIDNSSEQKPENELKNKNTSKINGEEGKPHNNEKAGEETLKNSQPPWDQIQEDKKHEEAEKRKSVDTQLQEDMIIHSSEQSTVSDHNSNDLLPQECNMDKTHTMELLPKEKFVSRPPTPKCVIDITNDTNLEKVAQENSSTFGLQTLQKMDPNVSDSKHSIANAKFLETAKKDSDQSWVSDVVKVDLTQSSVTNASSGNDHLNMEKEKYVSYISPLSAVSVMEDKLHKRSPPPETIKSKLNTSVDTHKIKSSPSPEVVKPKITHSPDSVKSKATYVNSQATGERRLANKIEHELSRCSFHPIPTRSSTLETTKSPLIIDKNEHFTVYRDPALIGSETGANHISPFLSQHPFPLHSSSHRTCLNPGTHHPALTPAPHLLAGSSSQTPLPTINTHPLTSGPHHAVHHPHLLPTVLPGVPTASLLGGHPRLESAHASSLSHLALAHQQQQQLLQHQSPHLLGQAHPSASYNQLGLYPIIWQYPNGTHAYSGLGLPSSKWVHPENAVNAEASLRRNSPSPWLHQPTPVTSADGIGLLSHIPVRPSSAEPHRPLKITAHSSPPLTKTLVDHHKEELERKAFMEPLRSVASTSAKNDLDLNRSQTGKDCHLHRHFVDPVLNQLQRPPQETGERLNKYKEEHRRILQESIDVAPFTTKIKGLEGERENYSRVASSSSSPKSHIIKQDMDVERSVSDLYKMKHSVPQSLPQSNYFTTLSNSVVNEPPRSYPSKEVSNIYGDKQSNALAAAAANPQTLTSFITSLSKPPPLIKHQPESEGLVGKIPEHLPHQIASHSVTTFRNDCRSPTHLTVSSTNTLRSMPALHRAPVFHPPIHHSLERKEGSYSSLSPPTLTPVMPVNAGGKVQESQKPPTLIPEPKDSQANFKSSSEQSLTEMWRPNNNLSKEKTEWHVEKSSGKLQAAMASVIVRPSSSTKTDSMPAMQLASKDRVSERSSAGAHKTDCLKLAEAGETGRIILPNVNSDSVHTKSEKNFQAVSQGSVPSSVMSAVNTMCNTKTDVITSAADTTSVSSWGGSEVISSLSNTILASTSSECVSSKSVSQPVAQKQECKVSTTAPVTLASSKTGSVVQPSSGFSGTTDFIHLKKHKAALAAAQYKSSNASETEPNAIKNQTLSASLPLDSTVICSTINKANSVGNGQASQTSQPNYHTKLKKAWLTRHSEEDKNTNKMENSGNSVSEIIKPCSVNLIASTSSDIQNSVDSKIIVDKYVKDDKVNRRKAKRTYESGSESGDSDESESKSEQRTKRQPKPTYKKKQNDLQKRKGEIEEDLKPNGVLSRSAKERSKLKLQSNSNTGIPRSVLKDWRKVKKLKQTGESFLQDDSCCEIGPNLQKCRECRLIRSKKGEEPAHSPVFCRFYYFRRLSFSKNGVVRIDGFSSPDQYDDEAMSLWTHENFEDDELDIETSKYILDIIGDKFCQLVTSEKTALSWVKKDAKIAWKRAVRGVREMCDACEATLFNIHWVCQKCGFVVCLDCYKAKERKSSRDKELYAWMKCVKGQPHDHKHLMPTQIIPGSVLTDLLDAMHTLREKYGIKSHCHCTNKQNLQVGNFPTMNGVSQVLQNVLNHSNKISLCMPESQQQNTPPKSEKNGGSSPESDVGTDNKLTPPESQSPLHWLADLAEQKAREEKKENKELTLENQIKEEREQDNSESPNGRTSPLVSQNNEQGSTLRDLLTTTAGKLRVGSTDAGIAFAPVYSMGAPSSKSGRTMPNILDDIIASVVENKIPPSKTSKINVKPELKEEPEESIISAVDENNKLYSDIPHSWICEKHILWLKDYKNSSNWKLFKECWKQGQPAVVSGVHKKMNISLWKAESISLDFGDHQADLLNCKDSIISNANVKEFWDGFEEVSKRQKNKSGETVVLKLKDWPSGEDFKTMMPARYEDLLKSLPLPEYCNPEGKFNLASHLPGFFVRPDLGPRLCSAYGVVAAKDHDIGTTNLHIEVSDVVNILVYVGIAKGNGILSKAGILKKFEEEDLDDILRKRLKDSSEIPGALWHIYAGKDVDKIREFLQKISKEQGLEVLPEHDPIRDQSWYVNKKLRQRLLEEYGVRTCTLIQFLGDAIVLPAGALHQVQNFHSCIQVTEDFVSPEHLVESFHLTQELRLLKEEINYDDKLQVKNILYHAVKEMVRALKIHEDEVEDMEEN
UniProt Q494X3: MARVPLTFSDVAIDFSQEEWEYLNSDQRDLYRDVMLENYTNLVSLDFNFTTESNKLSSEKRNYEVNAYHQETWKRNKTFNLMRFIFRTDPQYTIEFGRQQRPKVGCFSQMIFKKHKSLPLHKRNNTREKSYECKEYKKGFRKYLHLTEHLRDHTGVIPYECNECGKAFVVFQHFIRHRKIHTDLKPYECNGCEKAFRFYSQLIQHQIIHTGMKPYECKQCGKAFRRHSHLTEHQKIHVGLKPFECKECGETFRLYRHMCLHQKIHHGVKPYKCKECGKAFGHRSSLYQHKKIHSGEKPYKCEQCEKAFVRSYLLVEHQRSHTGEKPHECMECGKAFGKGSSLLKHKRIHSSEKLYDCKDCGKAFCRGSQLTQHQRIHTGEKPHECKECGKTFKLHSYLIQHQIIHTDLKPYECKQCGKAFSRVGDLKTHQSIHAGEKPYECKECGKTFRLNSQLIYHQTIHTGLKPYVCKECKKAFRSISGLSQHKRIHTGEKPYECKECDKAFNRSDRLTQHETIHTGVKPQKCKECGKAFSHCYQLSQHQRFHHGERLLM
UniProt Q2TAC2: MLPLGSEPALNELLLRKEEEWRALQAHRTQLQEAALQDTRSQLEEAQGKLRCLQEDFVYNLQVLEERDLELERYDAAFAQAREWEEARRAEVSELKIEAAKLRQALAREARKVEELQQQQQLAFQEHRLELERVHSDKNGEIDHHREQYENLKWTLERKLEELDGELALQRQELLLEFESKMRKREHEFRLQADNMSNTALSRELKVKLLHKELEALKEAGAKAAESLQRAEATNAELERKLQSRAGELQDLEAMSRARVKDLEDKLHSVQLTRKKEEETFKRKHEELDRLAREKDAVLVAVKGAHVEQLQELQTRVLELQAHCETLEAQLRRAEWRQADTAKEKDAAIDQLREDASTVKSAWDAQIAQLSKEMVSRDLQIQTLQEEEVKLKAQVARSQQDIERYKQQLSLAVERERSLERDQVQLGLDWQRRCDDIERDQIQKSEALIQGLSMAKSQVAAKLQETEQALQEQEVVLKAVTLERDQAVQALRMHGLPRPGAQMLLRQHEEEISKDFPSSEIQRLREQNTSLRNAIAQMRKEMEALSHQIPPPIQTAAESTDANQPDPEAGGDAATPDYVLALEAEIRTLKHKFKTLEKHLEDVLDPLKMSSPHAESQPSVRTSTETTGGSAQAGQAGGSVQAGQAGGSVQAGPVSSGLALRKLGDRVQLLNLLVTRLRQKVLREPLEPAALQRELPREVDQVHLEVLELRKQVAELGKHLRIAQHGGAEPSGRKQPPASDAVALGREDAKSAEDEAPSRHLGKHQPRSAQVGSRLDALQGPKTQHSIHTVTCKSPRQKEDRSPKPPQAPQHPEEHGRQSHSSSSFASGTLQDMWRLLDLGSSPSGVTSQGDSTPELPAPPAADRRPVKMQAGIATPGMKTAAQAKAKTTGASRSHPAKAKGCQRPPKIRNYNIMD
UniProt Q15365, whole entry: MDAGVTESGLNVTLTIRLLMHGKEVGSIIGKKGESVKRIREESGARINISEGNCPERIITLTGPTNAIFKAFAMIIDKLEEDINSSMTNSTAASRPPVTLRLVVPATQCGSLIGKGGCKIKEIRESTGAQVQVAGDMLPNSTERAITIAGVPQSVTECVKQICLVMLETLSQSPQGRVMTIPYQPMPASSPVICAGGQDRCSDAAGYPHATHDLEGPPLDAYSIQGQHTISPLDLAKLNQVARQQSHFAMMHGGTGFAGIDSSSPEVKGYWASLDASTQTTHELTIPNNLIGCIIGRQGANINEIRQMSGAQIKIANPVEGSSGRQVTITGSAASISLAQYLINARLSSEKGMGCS
UniProt Q15287: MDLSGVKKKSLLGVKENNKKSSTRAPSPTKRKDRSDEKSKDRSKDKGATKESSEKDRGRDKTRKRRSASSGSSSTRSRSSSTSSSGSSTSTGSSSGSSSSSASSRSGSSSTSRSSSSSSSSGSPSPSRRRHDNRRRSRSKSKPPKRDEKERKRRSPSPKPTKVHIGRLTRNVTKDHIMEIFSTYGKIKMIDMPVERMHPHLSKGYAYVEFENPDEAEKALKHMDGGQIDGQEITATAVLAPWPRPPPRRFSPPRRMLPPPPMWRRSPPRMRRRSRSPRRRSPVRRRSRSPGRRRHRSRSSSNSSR
UniProt Q3SXM0: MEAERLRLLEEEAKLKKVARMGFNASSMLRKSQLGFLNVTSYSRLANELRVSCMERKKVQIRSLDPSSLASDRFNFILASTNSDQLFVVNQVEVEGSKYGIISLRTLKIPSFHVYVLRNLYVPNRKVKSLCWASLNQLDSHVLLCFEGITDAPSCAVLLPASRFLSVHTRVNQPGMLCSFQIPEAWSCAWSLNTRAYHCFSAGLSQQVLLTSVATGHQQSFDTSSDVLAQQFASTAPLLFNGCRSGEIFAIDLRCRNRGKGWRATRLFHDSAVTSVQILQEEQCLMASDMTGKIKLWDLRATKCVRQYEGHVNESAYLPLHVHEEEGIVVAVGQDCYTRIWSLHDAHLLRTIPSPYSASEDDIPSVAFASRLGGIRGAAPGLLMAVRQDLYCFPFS

Compound in this test: CN[C@@H]1C[C@H]2O[C@@](C)([C@@H]1OC)n1c3ccccc3c3c4c(c5c6ccccc6n2c5c31)C(=O)NC4 [staurosporine]
Kind of test: log2 fold change of tryptic peptide abundance, ligand vs vehicle (limited proteolysis) (log2 ratio); higher = more trypsin-susceptible (destabilized). The note with it: ligand concentration: 20 uM; sample: K562 cleared lysate; digestion: 4 min, 22 C (HT-PELSA RT4min, Orbitrap Astral).
Take “RHEB (peptide sequence: IILEAEKMDGAASQGK, peptide start residue: 163) (UniProt Q15382)”: the log2 fold change turned out to be 0.483.

As for “TRIP4 (peptide sequence: KVTIDFAGR, peptide start residue: 325) (UniProt Q15650)”, the log2 fold change worked out at 0.215.

As for “TXNRD1 (peptide sequence: MIEAVQNHIGSLNWGYR, peptide start residue: 251) (UniProt Q16881)”, the log2 fold change is -0.415.

“CDK10 (peptide sequence: DGIPISSLR, peptide start residue: 77) (UniProt Q15131)”: the log2 fold change was -0.85.

For the target “SSX2 (peptide sequence: ATLPPFMCNK, peptide start residue: 65) (UniProt Q16385)”, the log2 fold change came out at 0.118.

For “UniProt Q2M389 (peptide sequence: LDDRNPFKVGMK, peptide start residue: 694)”, the log2 fold change was 0.916.

With “ERCC6L (peptide sequence: AQFLVEFESQNK, peptide start residue: 704) (UniProt Q2NKX8)”, the log2 fold change is -0.66.

“UniProt Q2YD98 (peptide sequence: AELELVLR, peptide start residue: 369)”: the log2 fold change was -0.193.

As to “MTERF2 (peptide sequence: IKDGHLANLNGSKK, peptide start residue: 344) (UniProt Q49AM1)”, the log2 fold change was 0.869.

As to “GLYR1 (peptide sequence: FQQAVDAVEEFLRR, peptide start residue: 79) (UniProt Q49A26)”, the log2 fold change was -0.127.

For the target “ARHGEF6 (peptide sequence: SNGQTIMEEK, peptide start residue: 703) (UniProt Q15052)”, the log2 fold change amounted to 0.353.

With “NOMO1 (peptide sequence: ALGQAASDNSGPEDAKR, peptide start residue: 1196) (UniProt Q15155)”, the log2 fold change was -0.186.

Take “JMJD1C (peptide sequence: YVKDDKVNR, peptide start residue: 1607) (UniProt Q15652)”: the log2 fold change is 0.787.

For the target “UBE3C (peptide sequence: CLRDACLGIIK, peptide start residue: 548) (UniProt Q15386)”, the log2 fold change worked out at 0.182.

Turning to “UniProt Q494X3 (peptide sequence: GSQLTQHQR, peptide start residue: 375)”, the log2 fold change was 0.446.

“TAF12 (peptide sequence: QWNMWIPGFGSEEIRPYKK, peptide start residue: 123) (UniProt Q16514)”: the log2 fold change was -0.228.

Turning to “UniProt Q16143 (peptide sequence: TKQGVTEAAEK, peptide start residue: 22)”, the log2 fold change came out at 0.161.

“CNN3 (peptide sequence: GPSYGLSAEVK, peptide start residue: 9) (UniProt Q15417)”: the log2 fold change is -0.0426.

With “CCDC57 (peptide sequence: EVDQVHLEVLELR, peptide start residue: 698) (UniProt Q2TAC2)”, the log2 fold change was -0.0848.

As to “EEA1 (peptide sequence: LAEIEEIK, peptide start residue: 1126) (UniProt Q15075)”, the log2 fold change was 0.157.

“UniProt Q15365 (peptide sequence: QQSHFAMMHGGTGFAGIDSSSPEVK, peptide start residue: 244)”: the log2 fold change was -0.11.

As for “HKDC1 (peptide sequence: MLPTFVR, peptide start residue: 63) (UniProt Q2TB90)”, the log2 fold change turned out to be 0.179.

With “UniProt Q2M3W8 (peptide sequence: ESPTADSVYK, peptide start residue: 147)”, the log2 fold change was -0.0612.

“MLF2 (peptide sequence: DSDSGLEQMSIGHHIR, peptide start residue: 143) (UniProt Q15773)”: the log2 fold change was -0.098.

For the target “UniProt Q15287 (peptide sequence: MDLSGVKK, peptide start residue: 1)”, the log2 fold change was 0.382.

On to “UniProt Q3SXM0 (peptide sequence: SGEIFAIDLR, peptide start residue: 345)”, for which the log2 fold change came to 0.361.

These data come from the supplement of paper PMC12819154, “High-throughput peptide-centric local stability assay extends protein–ligand identification to membrane proteins, tissues and bacteria” (Nature Structural & Molecular Biology, 2025).
